The target of this assay is HRD1 (human (endogenous in MCF7)) (UniProt Q86TM6). As to the kind of experiment: co-IP; endogenous proteins; MCF-7 cells pretreated with MG132 (10 μmol/l) for 6 h; IP with HRD1 or S100A8 antibodies, then immunoblotting; IgG as negative control. A general note: A western blot detects proteins with antibodies after separation by electrophoresis.

Sequences of proteins named here, by UniProt entry; tags and fusion partners are left off.
UniProt Q86TM6: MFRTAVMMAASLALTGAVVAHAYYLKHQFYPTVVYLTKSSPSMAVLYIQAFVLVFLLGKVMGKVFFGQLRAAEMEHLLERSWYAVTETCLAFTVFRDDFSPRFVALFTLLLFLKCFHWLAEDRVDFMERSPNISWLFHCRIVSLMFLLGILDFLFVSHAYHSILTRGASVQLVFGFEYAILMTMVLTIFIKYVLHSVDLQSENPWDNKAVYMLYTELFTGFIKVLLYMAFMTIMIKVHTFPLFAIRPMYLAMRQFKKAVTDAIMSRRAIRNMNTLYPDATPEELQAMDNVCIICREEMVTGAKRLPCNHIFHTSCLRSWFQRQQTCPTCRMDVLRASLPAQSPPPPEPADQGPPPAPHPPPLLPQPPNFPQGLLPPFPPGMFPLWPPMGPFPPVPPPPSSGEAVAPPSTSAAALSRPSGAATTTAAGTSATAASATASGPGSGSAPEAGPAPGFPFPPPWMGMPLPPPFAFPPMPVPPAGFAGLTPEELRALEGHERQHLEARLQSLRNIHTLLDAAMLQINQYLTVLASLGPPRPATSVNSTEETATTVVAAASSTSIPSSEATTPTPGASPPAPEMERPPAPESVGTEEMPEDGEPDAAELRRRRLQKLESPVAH

These are yes or no findings as the source states them, for the method shown. Binding seen in cells or lysates may run through a third protein. Some results given as binding are weak or reduced against the parent protein; the word gives no strength.

B1: S100A8 (protein, UniProt P05109 1-93)
chain: MLTELEKALNSIIDVYHKYSLIKGNFHAVYRDDLKKLLETECPQYIRKKGADVWFKELDINTDGAVNFQEFLILVIKMGVAAHKKSHEESHKE
B1: the binding result is “binds”.

The values are drawn from paper PMC5410327.
